A short description of this assay: qHTS Assay for Lipid Storage Modulators in Drosophila S3 Cells.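 For cell number change: cells counted by Cell Tracker Red CMTPX staining in the red channel.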 To be noted: BODIPY lipid droplet fluorescence, 18-24 h; for cell number change: measured here: cell count max response, cells fed with added oleic acid. The method, boiled down: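 Drosophila S3 cells loaded with oleic acid (400 uM, as added) and compounds at several concentrations; lipid droplets imaged by 488-nm laser-scanning cytometry, 500–530 nm intensity and object ratio to cell channel. Percent activity normalized to 20 uM Triacsin C.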

Setting [1] is: measured here: cell number channel AC50, cells fed with added oleic acid.
Setting [2] is: measured here: lipid fluorescence (Fed channel) AC50, cells fed with added oleic acid.

57 compounds from PubChem BioAssay AID2685 (National Center for Advancing Translational Sciences (NCATS), 2010) can be followed below.

The list shows a part of the results. Shown are side measurements of this screen, not its main read-out; they come without a call. Compounds called inactive in the main read-out are mostly missing here. Potencies come from curve fits of mixed quality, noted in brackets.

In the case of `OC(COc1ccc(Cl)c2ccccc12)CN1CCN(c2ccccn2)CC1` (centres undefined), the cell number change is -38.5%. Further, under setting [1], the AC50 was 29.1 µM [falling, single point]. For the same compound, the AC50 under setting [2] is 29.1 µM [falling, single point].
`Cc1ccc(N2CC(C(=O)Nc3cccnc3)CC2=O)cc1C` (centres undefined): the cell number change is -13.2%.
For `CC(C)n1c(Nn2cnnc2)nc2ccccc21`, under setting [2], the AC50 is 29.1 µM [rising, single point].
With `COc1ccc(OC)c(CN(CCCN2CCOCC2)S(=O)(=O)c2ccc(NC(C)=O)cc2)c1`, the cell number change is 29.2%. In addition, the AC50 under setting [2] was 18.4 µM [rising, partial curve].
As to `CC#CC[N+](C)(C)CCCCCCCCCC`, the cell number change is -23.7%. Also, under setting [2], the half-maximal activity concentration (AC50) is 25.9 µM [falling, single point].
In the case of `Cc1ccccc1OCCCCCn1ccnc1`, the cell number change turned out to be 0.453%. The half-maximal activity concentration (AC50) under setting [2] is 0.116 µM [rising, full curve].
Turning to `O=S(=O)(c1ccc(F)c(F)c1)N1CCN(S(=O)(=O)c2cccs2)CC1`, the AC50 under setting [2] was 29.1 µM [falling, single point].
On the same count and under the same terms, the result for `CC1CCCC(C)N1C(=O)CSc1nc2ccccc2c(=O)[nH]1` (centres undefined) reads 20.6 µM [rising, single point].
On to `CC(=O)N/C(=C\c1ccc2c(c1)OCO2)C(=O)NC(C(=O)O)c1ccccc1` (centres undefined), for which the cell number change worked out at 12.8%. The AC50 under setting [1] was 0.731 µM [rising, full curve, poor fit]. For the same compound, the AC50 under setting [2] is 0.651 µM [rising, partial curve].
For the compound `COc1cccc(NC(=O)Cn2cc(C(=O)C3CC3)c3ccccc32)c1`, the half-maximal activity concentration (AC50) under setting [1] is 2.31 µM [rising, partial curve, poor fit].
Take `COC(=O)c1ccc(OCC(O)CN(CCO)CCO)cc1` (centres undefined): the cell number change is -9.44%. Also, the AC50 under setting [2] is 0.164 µM [falling, full curve, poor fit].
Take `COc1ccc(C)cc1NC(=O)CN1CCN(c2ccccc2F)CC1`: the cell number change was -0.541%. The AC50 under setting [2] was 0.82 µM [rising, full curve].
`Cc1ccc(S(=O)(=O)CCC(=O)OCc2nc(N)nc(Nc3ccccc3C)n2)cc1`: the cell number change is -1.71%. Under setting [2], the AC50 is 11.6 µM [rising, partial curve].
As to `c1ccc2oc(SCc3nc4ccccc4s3)nc2c1`, the cell number change amounted to 14.2%. The AC50 under setting [1] was 0.13 µM [falling, full curve, poor fit]. Further, under setting [2], the half-maximal activity concentration (AC50) is 4.61 µM [rising, single point].
Consider `COc1ccc(CCNS(=O)(=O)c2ccc3c(c2)NC(=O)C(C)S3)cc1OC` (centres undefined), for which the cell number change is 1.79%.
On to `CCOC(=O)C(=O)NC(C)c1ccccc1` (centres undefined), for which the cell number change worked out at 20.2%. The AC50 under setting [2] is 25.9 µM [rising, single point].
As for `COc1ccc(NC(=O)C2CCCN(S(=O)(=O)c3ccccc3)C2)c(OC)c1` (centres undefined), the cell number change is -23.3%. Besides, the AC50 under setting [2] is 29.1 µM [rising, single point].
In the case of `COc1ccc(C(=O)Nc2ccc(S(=O)(=O)NC(C)(C)C)cc2)cc1[N+](=O)[O-]`, the cell number change was 7.01%. Besides, the AC50 under setting [2] was 23.1 µM [falling, single point].
Consider `COc1ccccc1CNC(=O)c1nccnc1CO`, for which the cell number change is 21.6%. Under setting [2], the AC50 is 6.51 µM [rising, single point].
With `Cc1cc(=O)[nH]c(SCCOc2ccc3c(c2)CCC3)n1`, the cell number change came out at 0.473%. Moreover, under setting [2], the concentration at half-maximal activity (AC50) was 6.51 µM [falling, partial curve, poor fit].
In the case of `CCOCC(=O)Nc1nnc(Cc2ccc(OC)c(OC)c2)s1`, the cell number change was -5.64%.
As for `Cn1c(=O)c2c(nc(NCCO)n2CCc2ccccc2)n(C)c1=O`, the cell number change is -47.8%. Also, under setting [1], the AC50 is 29.1 µM [falling, single point]. Moreover, under setting [2], the AC50 was 11.6 µM [falling, partial curve].
As to `COc1ccc(NC2c3ccccc3C(=O)N2Cc2ccc3c(c2)OCO3)cc1` (centres undefined), the cell number change came out at 11.5%. Also, the half-maximal activity concentration (AC50) under setting [2] is 0.517 µM [rising, full curve, poor fit].
Take `CC1(c2ccc(Cl)cc2)NC(=O)N(CC(=O)c2ccc3c(c2)OCO3)C1=O` (centres undefined): the cell number change was -41.7%. The AC50 under setting [1] is 2.91 µM [falling, partial curve]. For the same compound, the half-maximal activity concentration (AC50) under setting [2] is 3.26 µM [falling, partial curve].
With `Cc1ccc(S(=O)(=O)c2cnc(-c3ccccc3)nc2N2CCCCC2)cc1`, the cell number change is -20%. Also, under setting [1], the AC50 is 6.51 µM [falling, single point]. For the same compound, under setting [2], the AC50 was 2.31 µM [rising, partial curve].
Consider `CC(C)c1c(O)nc(SCC(=O)N2CCOCC2)[nH]c1=O`, for which the cell number change is -116%. For the same compound, the AC50 under setting [1] was 10.3 µM [falling, partial curve, poor fit]. The AC50 under setting [2] is 0.326 µM [falling, full curve].
For the compound `O=C(c1ccccc1)N1CCN(c2ccc(NCc3ccc4c(c3)OCO4)cc2)CC1`, the half-maximal activity concentration (AC50) runs as follows: under setting [1], 2.31 µM [rising, partial curve, poor fit]; under setting [2], 6.51 µM [rising, single point].
As for `O=S(=O)(NCC1CCCO1)c1ccccc1F` (centres undefined), the cell number change worked out at 20.7%. Under setting [2], the concentration at half-maximal activity (AC50) is 6.51 µM [rising, single point].
Consider `O=C(/C=C/c1ccc(F)cc1)N1CCCc2ccccc21`, for which the cell number change was -14.6%. Also, under setting [2], the AC50 was 29.1 µM [falling, single point].
As for `COc1ccc(C(O)P(=O)(OC2CCCCC2)c2ccc(N(C)C)cc2)cc1OC` (centres undefined), the cell number change is -1.35%. Moreover, the AC50 under setting [2] was 0.0517 µM [rising, full curve].
`O=C(NCC(=O)N(c1ccc(F)cc1)C(C(=O)NCC1CCCO1)c1ccccc1)c1ccco1` (centres undefined): the cell number change worked out at 0.639%. Further, under setting [2], the AC50 was 29.1 µM [rising, single point].
In the case of `Clc1ccc(CNC23CN4CN(CN(C4)C2)C3)c(Cl)c1`, the cell number change was -44.9%. The AC50 under setting [1] is 4.11 µM [falling, partial curve]. In addition, the AC50 under setting [2] is 1.3 µM [falling, full curve].
For the compound `CSc1ncc(Cl)c(C(=O)Nc2ccc(NC(C)=O)cc2)n1`, the cell number change is -10.6%.
As for `CCOc1ccc(N2CC(NC(=O)c3cccc4ccccc34)CC2=O)cc1` (centres undefined), the cell number change was found to be 12.9%. Moreover, the concentration at half-maximal activity (AC50) under setting [2] was 7.31 µM [rising, single point].
Turning to `CS(=O)(=O)Nc1ccccc1C(=O)N1CCOCC1`, the cell number change is -34%. Besides, the AC50 under setting [1] is 0.184 µM [falling, full curve]. The AC50 under setting [2] is 1.46 µM [falling, full curve].
Consider `N#Cc1ccc(COC(=O)c2cccnc2Cl)cc1`, for which the cell number change is -21.8%.
Consider `COc1ccc(CCNC(=O)CSc2nc(O)cc(=O)[nH]2)cc1OC`, for which the cell number change is -11.9%. For the same compound, the AC50 under setting [2] was 0.82 µM [falling, full curve, poor fit].
On to `O=C(Nc1ccc(F)cc1)Nc1ccc(N2CCCC2)c(S(=O)(=O)Nc2ccccc2Cl)c1`, for which the cell number change was -82.4%. Under setting [1], the AC50 was 29.1 µM [falling, single point]. Further, under setting [2], the AC50 was 4.11 µM [falling, full curve, poor fit].
For `COc1ccccc1Nc1nnc(SCC(=O)Nc2cc(C)on2)s1`, the cell number change came out at 13.6%. The AC50 under setting [2] was 20.6 µM [falling, partial curve, poor fit].
Regarding `Cc1ccc2c(c1)N(CC(=O)NCc1ccco1)C(=O)C(C(C)C)O2` (centres undefined), the cell number change is -18.8%. The AC50 under setting [2] is 10.3 µM [falling, partial curve, poor fit].
Consider `COc1ccccc1N(C)S(=O)(=O)c1ccc(C(=O)OCC(=O)c2c[nH]c3ccccc23)cc1`, for which the cell number change is -4.74%. Besides, the AC50 under setting [1] is 0.731 µM [rising, single point]. In addition, the AC50 under setting [2] is 1.84 µM [rising, partial curve].
For the compound `COc1ccc(-c2ccc(-c3noc(-c4ccco4)n3)c(OC)n2)cc1`, the cell number change was -48.3%. In addition, the AC50 under setting [1] was 29.1 µM [falling, single point]. Further, the AC50 under setting [2] was 29.1 µM [falling, single point].
In the case of `C=CCOC(=O)/C(=C\c1ccccc1)NC(=O)c1ccc(C)cc1`, the cell number change turned out to be 40.8%.
Consider `Cc1cc(=O)oc2cc(OCC(=O)Nc3nccs3)ccc12`, for which the cell number change is 18.3%.
As for `CCS(=O)(=O)N1CCN(CC(=O)NC2CCCCC2)CC1`, the cell number change is -9.26%. In addition, the AC50 under setting [2] is 0.517 µM [falling, full curve, poor fit].
As for `COc1cc(CNn2c(C)n[nH]c2=S)cc(Br)c1OCc1ccc(F)cc1`, the cell number change is -30.8%. Under setting [1], the half-maximal activity concentration (AC50) is 16.4 µM [falling, single point]. In addition, the AC50 under setting [2] is 1.3 µM [rising, partial curve, poor fit].
On to `Cc1ccc(C(=O)/C=C/C(=O)c2ccc(C)cc2)cc1`, for which the cell number change is -22.2%. In addition, the AC50 under setting [2] was 29.1 µM [falling, single point].
On to `O=C(Nc1nccs1)c1ccc2ccccc2n1`, for which the cell number change worked out at 43.4%. In addition, the AC50 under setting [1] is 29.1 µM [rising, single point].
In the case of `COc1ccc(NC(=S)NC(=O)C2CCCCC2)cc1`, the cell number change came to 34.1%. In addition, the AC50 under setting [1] is 29.1 µM [rising, single point]. Further, under setting [2], the half-maximal activity concentration (AC50) was 29.1 µM [rising, single point].
`COCCNC(=O)Cn1cnc2sc(C)c(S(=O)(=O)N3CCC(C)CC3)c2c1=O`: the cell number change was -1.7%. For the same compound, the half-maximal activity concentration (AC50) under setting [2] is 0.517 µM [falling, full curve, poor fit].
Take `CC(C)CN(CC(C)C)S(=O)(=O)N1CCC(C(=O)N2CCc3ccccc3C2)CC1`: the cell number change was -21.9%. Moreover, the AC50 under setting [1] was 0.517 µM [falling, full curve, poor fit]. Further, the AC50 under setting [2] was 0.651 µM [falling, full curve, poor fit].
For `Nc1nnc(CC(=O)N/N=C/c2cc([N+](=O)[O-])cc(Br)c2O)s1`, the cell number change was -3.68%. In addition, under setting [2], the AC50 was 29.1 µM [falling, single point].
`Cc1ccc(-c2cc3ccccc3nc2N2CCOCC2)cc1`: the cell number change is 8.33%. In addition, the AC50 under setting [2] is 0.116 µM [falling, partial curve, poor fit].
Regarding `COc1ccc(CNC(=O)CN2C(=O)NC(Cc3ccccc3)(c3ccccc3)C2=O)cc1OC` (centres undefined), the cell number change is -20.1%. Further, the AC50 under setting [2] was 6.51 µM [falling, partial curve].
Regarding `Cc1ccc2nsnc2c1NC(=O)COc1ccccc1F`, the cell number change is 130%. For the same compound, under setting [1], the AC50 was 0.58 µM [rising, single point].
Turning to `COc1ccc(OC)c(NC(=O)CCN2CCCC(C)C2)c1` (centres undefined), the cell number change is -25.7%. In addition, the AC50 under setting [1] was 2.06 µM [falling, single point]. Further, under setting [2], the half-maximal activity concentration (AC50) was 0.116 µM [rising, full curve, poor fit].
As to `O=C(CCCn1c(=O)c2ccccc2n(Cc2cccc(F)c2)c1=O)NC1CCN(Cc2ccccc2)CC1`, the cell number change was -23.2%. Moreover, the AC50 under setting [2] is 29.1 µM [falling, single point].
